Earlier results, collected in patent publication US20200261427A1 (Al Therapeutics, Inc., priority 2019, published 2020).

Details: cited from earlier work

## CO[C@H]1C[C@@H]2CC[C@@H](C)[C@@](O)(O2)C(=O)C(=O)N2CCCC[C@H]2C(=O)O[C@H]([C@H](C)C[C@@H]2CC[C@@H](O)[C@H](OC)C2)CC(=O)[C@H](C)/C=C(\C)[C@@H](O)[C@@H](OC)C(=O)[C@H](C)C[C@H](C)/C=C/C=C/C=C/1C [Rapamycin, rapamycin]
  solubility in benzyl alcohol, chloroform, acetone, and acetonitrile: freely soluble
